Measured values: patent publication US20080199438A1, “Methods For Suppressing Tumor Proliferation” (DNAVEC RESEARCH INC., priority 2004, published 2008)
For at least one compound, name, drawing or mass did not settle the structure.

How the values were obtained:
MRC5 cells [1] = test: FGF-2-mediated secretion of VEGF and HGF with signal transduction inhibitors or neutralizing antibody, ELISA; type: cell-based, human; conditions: MRC5, 10 ng/ml FGF-2, 72 hours; rapamycin 100 ng/ml, U0126 10 μmol/L, Ras-inhibitory peptide 50 μmol/L
Description: (A) Effect of various inhibitors of intracellular signal transduction pathways upon the secretion of VEGF and HGF in MRC5 cells. After 48 hours of preincubation in the presence of 1% FBS, cells were stimulated with 10 ng/ml of human recombinant FGF-2 in the presence or absence of various inhibitors. After 72 hours, the medium was subjected to ELISA. n=3 in each group. *P<0.01.
(C) Increases in FGF-2-mediated VEGF secretion completely depend on PDGFRα. After 48 hours of preincubation in the presence of 1% FBS, MRC5 cells were stimulated with 10 ng/ml of recombinant human FGF-2 in the presence or absence of an anti-PDGFRα neutralizing antibody. After 72 hours, the medium was subjected to ELISA. Similar results were obtained for the expression of HGF (data not shown). *P<0.01. […]
As mentioned previously (Masaki I et al., Circ Res. 90: 966-973 (2002); Onimaru M et al., Circ Res. 91: 723-730 (2002)), the protein contents of the mouse limb muscle, tumor, and culture medium were determined using Quantikine Immunoassay systems for mice (both the 164 and 220 amino acid residue forms are recognized) and human VEGF-A, human FGF-2 (available to both human and mouse), human HGF (R&D Systems Inc., Minneapolis, Minn.), and rat HGF (available to mouse HGF; Institute of Immunology Inc., Tokyo, Japan), according to the manufacturer's instructions.

MRC5 cells [2] = test: Northern blot time course of FGF-2-mediated VEGF mRNA expression; type: cell-based, human; conditions: MRC5, 10 ng/ml FGF-2, Northern blot
Description: (B) A p70S6K inhibitor, Rapamycin (RAPA) stops the later phase of FGF-2-mediated VEGF mRNA expression in MRC5 cells. After 48 hours of preincubation in the presence of 1% FBS, cells were stimulated with 10 ng/ml of recombinant human FGF-2. Cells were harvested at the time indicated in the figure and then subjected to Northern blot analysis. The bands were visualized and subjected to densitometric analysis using a photoimager.
Total cellular RNA, isolated using the ISOGEN system (Wako Pure Chemicals, Osaka, Japan), was electrophoresed and transferred onto a nylon membrane. The membranes were hybridized overnight at 60° C. with random-primed [α-^32P]dCTP-labeled probes. The bands were visualized and subjected to densitometry using a photoimager.

ischemic femoral muscle = test: C57BL/6 mouse limb salvage model (limb ischemia), real-time PCR and ELISA of femoral muscle; type: in vivo
[3] = test system: balb/c nu/nu mice exhibiting limb ischemia; test: balb/c nu/nu mouse limb autoamputation model, limb salvage score; type: in vivo; conditions: FGF-2 gene transfer
SAS [4] = test: Tumor implantation in mice: tumor proliferation, weight, tumor ELISA, Doppler blood flow; type: in vivo, human
MH134 = test: as above; type: in vivo, mouse
SAS [5] = test: Endogenous growth factor secretion of tumor cells in culture with RAPA; type: cell-based, human; conditions: each tumor type, data not shown
MH134 cells = test: Hypoxia-induced VEGF expression in culture, ELISA; type: cell-based, mouse; conditions: MH134 cultures, hypoxia 2.5% O2, 48 hours
[6] = limb salvage model, FGF-2 gene transfer, RAPA 1.5 mg/kg/day i.p., antibody by osmotic pump
[7] = limb salvage model, RAPA 1.5 mg/kg/day i.p., femoral muscle ELISA two days later
[8] = seven days after beginning RAPA injections

**Q.** With `CO[C@H]1C[C@@H]2CC[C@@H](C)[C@@](O)(O2)C(=O)C(=O)N2CCCC[C@H]2C(=O)O[C@H]([C@H](C)C[C@@H]2CC[C@@H](O)[C@H](OC)C2)CC(=O)[C@H](C)/C=C(\C)[C@@H](O)[C@@H](OC)C(=O)[C@H](C)C[C@H](C)/C=C/C=C/C=C/1C` [RAPA, Rapamycin] as the molecule, how does the “FGF-2-mediated upregulation of HGF/SF protein” value (MRC5 cells [1]) read?
**A.** The value was “removed these effects”.

**Q.** And the “FGF-2-mediated upregulation of VEGF protein” value (MRC5 cells [1])?
**A.** The value was “removed these effects”.

**Q.** What about the “early phase VEGF expression” value (MRC5 cells [2]) of the same molecule?
**A.** Its value is “not affected”.

**Q.** What about the “sustained VEGF expression in later phases” value (MRC5 cells [2]) of the same molecule?
**A.** The value was “completely disappear”.

**Q.** And the “exogenous expression of FGF-2 induced by FGF-2 gene transfer” value (ischemic femoral muscle; RAPA-treated vs untreated mice, data not shown)?
**A.** Its value is “No difference”.

**Q.** And the “expression of HGF/SF (mRNA)” value (ischemic femoral muscle; [6])?
**A.** Its value is “eliminated this effect”.

**Q.** What about the “expression of VEGF (mRNA)” value (ischemic femoral muscle; [6]) of the same molecule?
**A.** Its value is “eliminated this effect”.

**Q.** What about the “FGF-2-mediated expression of HGF protein” value (ischemic femoral muscle; [7]) of the same molecule?
**A.** Its value is “inhibits”.

**Q.** And the “FGF-2-mediated expression of VEGF protein” value (ischemic femoral muscle; [7])?
**A.** The value was “inhibits”.

**Q.** And the “therapeutic effect of FGF-2 (limb salvage)” value [3]?
**A.** Its value is “eliminated the therapeutic effect of FGF-2”.

**Q.** And the tumor proliferation (SAS [4]; SAS tumors, RAPA i.p. every day from day 7, SeV vector 1×10^8 pfu/tumor injected into tumor once)?
**A.** The tumor proliferation was “suppressed proliferation”.

**Q.** And the “human VEGF levels in tumor” value (SAS [4]; SAS xenograft, human-specific ELISA, seven days after initiating RAPA)?
**A.** Its value is “significantly increased”.

**Q.** And the “murine VEGF levels in tumor” value (SAS [4]; SAS xenograft, mouse-specific ELISA, seven days after initiating RAPA)?
**A.** The value was “without affecting”.

**Q.** What about the “blood flow in tumor (Doppler perfusion image)” value (SAS [4]; [8]) of the same molecule?
**A.** The value was “reduced”.

**Q.** And the size of tumors (MH134; MH134, Day 7 of RAPA injections)?
**A.** The size of tumors was “no significant difference”.

**Q.** And the “VEGF expression in tumors in vivo” value (MH134; MH134 tumors, three or seven days after RAPA treatment, vs buffer-treated control)?
**A.** The value was “significantly increased”.

**Q.** And the tumor proliferation (MH134; MH134 tumors, RAPA i.p. every day from day 7, SeV vector 1×10^8 pfu/tumor injected into tumor once)?
**A.** The tumor proliferation was “suppressed proliferation”.

**Q.** What about the “blood flow in tumor (Doppler perfusion image)” value (MH134; [8]) of the same molecule?
**A.** Its value is “reduced”.

**Q.** And the “expression of PDGF-AA and FGF-2” value (SAS [5])?
**A.** The value was “not observed”.

**Q.** And the “hypoxia-induced VEGF expression” value (MH134 cells)?
**A.** The value was “significant but only minimal effect”.
